Source: PMC5930436, “Overexpressed HDAC8 in cervical cancer cells shows functional redundancy of tubulin deacetylation with HDAC6” (Cell Communication and Signaling : CCS, 2018)
These are yes or no findings as the source states them, for the method shown. Binding seen in cells or lysates may run through a third protein. Some results given as binding are weak or reduced against the parent protein; the word gives no strength.

Sequences of proteins named here, by UniProt entry; tags and fusion partners are left off.
UniProt Q9BQE3: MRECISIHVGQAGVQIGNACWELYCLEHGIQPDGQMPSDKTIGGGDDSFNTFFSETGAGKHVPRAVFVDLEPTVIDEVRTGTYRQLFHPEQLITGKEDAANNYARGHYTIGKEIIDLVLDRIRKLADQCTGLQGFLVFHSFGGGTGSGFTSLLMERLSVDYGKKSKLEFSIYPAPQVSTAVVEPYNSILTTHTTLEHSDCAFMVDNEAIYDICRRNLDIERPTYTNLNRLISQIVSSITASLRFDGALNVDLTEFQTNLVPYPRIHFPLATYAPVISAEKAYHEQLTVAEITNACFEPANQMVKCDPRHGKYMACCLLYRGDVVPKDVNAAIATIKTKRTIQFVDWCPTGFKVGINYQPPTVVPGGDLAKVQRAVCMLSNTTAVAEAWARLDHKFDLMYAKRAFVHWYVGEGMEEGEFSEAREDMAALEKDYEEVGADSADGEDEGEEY

B1: HDAC8 (enzyme, UniProt Q9BY41 1-377)
chain: MEEPEEPADSGQSLVPVYIYSPEYVSMCDSLAKIPKRASMVHSLIEAYALHKQMRIVKPKVASMEEMATFHTDAYLQHLQKVSQEGDDDHPDSIEYGLGYDCPATEGIFDYAAAIGGATITAAQCLIDGMCKVAINWSGGWHHAKKDEASGFCYLNDAVLGILRLRRKFERILYVDLDLHHGDGVEDAFSFTSKVMTVSLHKFSPGFFPGTGDVSDVGLGKGRYYSVNVPIQDGIQDEKYYQICESVLKEVYQAFNPKAVVLQLGADTIAGDPMCSFNMTPVGIGKCLKYILQWQLATLILGGGGYNLANTARCWTYLTGVILGKTLSSEIPDHEFFTAYGPDYVLEITPSCRPDRNEPHRIQQILNYIKGNLKHVV

What was measured:
[1] = target: T1, HDAC8 (human (endogenous in HeLa and HEK 293 T)) (UniProt Q9BY41); assay: co-IP; endogenous proteins of HeLa and HEK 293 T lysates; IP with anti-HDAC8 antibody, reverse IP with the partner's antibody (tubulin, HDAC6); Protein A beads; immunoblot
T1 sequence: B1 chain

[2] = target: Alpha tubulin (TUBA1-C, Human Alpha Tubulin chain 1 C isoform) (human (endogenous in HeLa and HEK 293 T)) (UniProt Q9BQE3); assay: as above

Molecule | binding [1] | binding [2]
Acetylated alpha tubulin (from UniProt Q9BQE3 1-449) | binds | 
Alpha tubulin (TUBA1-C, Human Alpha Tubulin chain 1 C isoform) (from UniProt Q9BQE3 1-449) | binds | 
B1 |  | binds
